In PMC6300487:
These are yes or no findings as the source states them, for the method shown. In cells and extracts the contact can be indirect. Some entries that bind do so weakly or less than the wild type. Sequences can lack the tags named with a protein.

T1: Myc-DDK-VOPP1 (UniProt Q96AW1)
T1 sequence: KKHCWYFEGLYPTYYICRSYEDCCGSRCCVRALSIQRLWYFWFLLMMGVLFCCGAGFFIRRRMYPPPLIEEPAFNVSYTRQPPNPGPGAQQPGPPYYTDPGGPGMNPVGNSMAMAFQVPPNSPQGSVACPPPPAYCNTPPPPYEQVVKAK

T2: Myc-DDK-SEC23IP (UniProt Q9Y6Y8)
T2 sequence: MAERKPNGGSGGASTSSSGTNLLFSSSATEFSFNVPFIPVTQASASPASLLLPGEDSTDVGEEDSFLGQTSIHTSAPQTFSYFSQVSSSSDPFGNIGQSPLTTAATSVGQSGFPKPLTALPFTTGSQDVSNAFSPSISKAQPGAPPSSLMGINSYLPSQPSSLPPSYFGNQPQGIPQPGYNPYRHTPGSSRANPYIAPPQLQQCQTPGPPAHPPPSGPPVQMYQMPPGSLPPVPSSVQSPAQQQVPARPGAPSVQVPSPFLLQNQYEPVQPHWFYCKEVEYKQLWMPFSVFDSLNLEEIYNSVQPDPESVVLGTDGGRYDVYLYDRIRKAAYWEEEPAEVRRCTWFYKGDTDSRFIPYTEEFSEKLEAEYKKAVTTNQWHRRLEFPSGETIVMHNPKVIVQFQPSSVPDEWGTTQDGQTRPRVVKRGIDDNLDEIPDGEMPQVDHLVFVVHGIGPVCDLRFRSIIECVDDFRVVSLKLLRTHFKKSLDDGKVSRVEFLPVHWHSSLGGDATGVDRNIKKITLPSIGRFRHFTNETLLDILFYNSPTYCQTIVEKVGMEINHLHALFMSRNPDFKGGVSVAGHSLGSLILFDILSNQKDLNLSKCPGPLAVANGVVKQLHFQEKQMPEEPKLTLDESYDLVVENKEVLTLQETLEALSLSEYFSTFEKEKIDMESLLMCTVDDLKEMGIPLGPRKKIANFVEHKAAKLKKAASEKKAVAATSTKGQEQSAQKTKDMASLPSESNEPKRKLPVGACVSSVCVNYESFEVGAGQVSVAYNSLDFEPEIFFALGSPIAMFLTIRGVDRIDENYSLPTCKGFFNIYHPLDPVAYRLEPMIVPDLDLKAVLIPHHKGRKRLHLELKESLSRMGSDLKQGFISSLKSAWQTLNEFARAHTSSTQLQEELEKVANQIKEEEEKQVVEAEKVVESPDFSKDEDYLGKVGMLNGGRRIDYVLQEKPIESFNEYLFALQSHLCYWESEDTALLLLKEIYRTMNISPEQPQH

T3: Myc-DDK-SCAMP3 (UniProt O14828)
T3 sequence: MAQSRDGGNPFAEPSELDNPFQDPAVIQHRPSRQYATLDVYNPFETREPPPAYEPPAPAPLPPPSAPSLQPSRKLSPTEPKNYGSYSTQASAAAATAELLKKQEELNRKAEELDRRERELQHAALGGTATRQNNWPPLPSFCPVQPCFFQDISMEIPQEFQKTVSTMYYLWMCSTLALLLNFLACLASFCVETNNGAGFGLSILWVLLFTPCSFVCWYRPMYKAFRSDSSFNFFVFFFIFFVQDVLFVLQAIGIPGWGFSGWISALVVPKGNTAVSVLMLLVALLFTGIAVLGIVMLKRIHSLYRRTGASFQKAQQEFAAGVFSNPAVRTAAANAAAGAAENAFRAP

T4: GST-WWOX (full length wild-type WWOX) (human) (UniProt Q9NZC7)
T4 sequence: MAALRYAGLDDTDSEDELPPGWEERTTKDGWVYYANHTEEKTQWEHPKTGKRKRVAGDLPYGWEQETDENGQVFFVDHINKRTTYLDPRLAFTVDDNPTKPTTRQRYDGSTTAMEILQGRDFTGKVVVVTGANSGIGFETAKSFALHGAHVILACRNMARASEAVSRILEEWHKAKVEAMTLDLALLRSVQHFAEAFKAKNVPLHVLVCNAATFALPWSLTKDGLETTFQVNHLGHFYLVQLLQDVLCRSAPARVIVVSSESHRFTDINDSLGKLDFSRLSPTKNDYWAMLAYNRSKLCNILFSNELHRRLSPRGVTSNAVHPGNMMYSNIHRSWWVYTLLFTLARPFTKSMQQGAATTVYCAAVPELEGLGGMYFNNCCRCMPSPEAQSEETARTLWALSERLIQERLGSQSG

T5: GFP-WWOX (human) (UniProt Q9NZC7)
T5 sequence: T4 sequence

B1: GFP-WWOX (protein, UniProt Q9NZC7 1-414)
chain: T4 sequence
B2: Myc-DDK-SEC23IP (protein, UniProt Q9Y6Y8 1-1000)
chain: T2 sequence
B3: Myc-DDK-SCAMP3 (protein, UniProt O14828 1-347)
chain: T3 sequence
B4: Myc-DDK-VOPP1 (protein, UniProt Q96AW1 23-172)
chain: T1 sequence

Legend:
Myc-DDK-VOPP1 = target: T1, Myc-DDK-VOPP1; experiment: co-IP; HEK293T co-transfected with Myc-DDK-tagged partner and GFP-WWOX, lysed after 36 h (1% Triton X-100, 150 mM NaCl, Hepes pH 7.4); IP with anti-Myc or anti-GFP (rabbit IgG control), Protein A/G agarose 16 h at 4 C; blot with anti-Myc or anti-WWOX
Myc-DDK-SEC23IP = target: T2, Myc-DDK-SEC23IP; experiment: as above
Myc-DDK-SCAMP3 = target: T3, Myc-DDK-SCAMP3; experiment: as above
[1] = target: T4, GST-WWOX (full length wild-type WWOX) (human); experiment: pull-down; 10 ug purified GST-fusion protein with Glutathione Sepharose 4B added to 600 ug total lysate of HEK293T cells transfected with Myc-SEC23IP or Myc-SCAMP3 (50 mM Tris pH 7.5, 150 mM NaCl, 1% Triton X-100), overnight at 4 C; anti-Myc blot; only the target purified
GFP-WWOX (human) = target: T5, GFP-WWOX (human); experiment: co-IP; HEK293T co-transfected with Myc-DDK-tagged partner and GFP-WWOX, lysed after 36 h (1% Triton X-100, 150 mM NaCl, Hepes pH 7.4); IP with anti-Myc or anti-GFP (rabbit IgG control), Protein A/G agarose 16 h at 4 C; blot with anti-Myc or anti-WWOX

| Binder | binding (Myc-DDK-VOPP1) | binding (Myc-DDK-SEC23IP) | binding (Myc-DDK-SCAMP3) | binding [1] | binding (GFP-WWOX (human)) |
| --- | --- | --- | --- | --- | --- |
| B1 | binds | binds | binds | – | – |
| B2 | – | – | – | binds | binds |
| B3 | – | – | – | binds | binds |
| B4 | – | – | – | – | binds |
